# Test results published in paper doi:10.1101/2023.11.20.567203.
# Protein sequences, listed by entry. Tags and fused reporters are not part of them.
# UniProt Q9UKV8: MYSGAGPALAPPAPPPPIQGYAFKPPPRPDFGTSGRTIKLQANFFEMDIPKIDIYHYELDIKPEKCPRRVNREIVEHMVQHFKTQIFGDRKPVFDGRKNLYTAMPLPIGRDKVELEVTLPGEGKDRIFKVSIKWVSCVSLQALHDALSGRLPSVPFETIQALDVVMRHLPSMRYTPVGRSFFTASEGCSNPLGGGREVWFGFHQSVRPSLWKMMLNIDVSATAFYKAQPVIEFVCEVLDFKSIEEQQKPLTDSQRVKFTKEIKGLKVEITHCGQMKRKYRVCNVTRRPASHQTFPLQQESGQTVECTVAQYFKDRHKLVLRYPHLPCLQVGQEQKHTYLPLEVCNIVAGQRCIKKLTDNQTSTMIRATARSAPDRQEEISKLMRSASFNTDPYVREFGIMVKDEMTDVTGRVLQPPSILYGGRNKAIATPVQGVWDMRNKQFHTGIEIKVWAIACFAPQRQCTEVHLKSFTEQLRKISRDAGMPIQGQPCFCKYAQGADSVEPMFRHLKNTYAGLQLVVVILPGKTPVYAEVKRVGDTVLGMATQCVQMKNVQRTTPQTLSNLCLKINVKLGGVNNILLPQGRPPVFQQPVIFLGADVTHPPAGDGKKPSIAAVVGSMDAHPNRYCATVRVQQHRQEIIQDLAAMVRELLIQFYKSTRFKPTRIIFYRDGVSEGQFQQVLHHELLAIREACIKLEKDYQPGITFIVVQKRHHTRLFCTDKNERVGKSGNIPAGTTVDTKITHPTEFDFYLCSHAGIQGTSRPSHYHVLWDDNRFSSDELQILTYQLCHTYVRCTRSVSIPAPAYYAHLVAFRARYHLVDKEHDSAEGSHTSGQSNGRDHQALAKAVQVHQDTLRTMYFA
# UniProt Q9UPY3: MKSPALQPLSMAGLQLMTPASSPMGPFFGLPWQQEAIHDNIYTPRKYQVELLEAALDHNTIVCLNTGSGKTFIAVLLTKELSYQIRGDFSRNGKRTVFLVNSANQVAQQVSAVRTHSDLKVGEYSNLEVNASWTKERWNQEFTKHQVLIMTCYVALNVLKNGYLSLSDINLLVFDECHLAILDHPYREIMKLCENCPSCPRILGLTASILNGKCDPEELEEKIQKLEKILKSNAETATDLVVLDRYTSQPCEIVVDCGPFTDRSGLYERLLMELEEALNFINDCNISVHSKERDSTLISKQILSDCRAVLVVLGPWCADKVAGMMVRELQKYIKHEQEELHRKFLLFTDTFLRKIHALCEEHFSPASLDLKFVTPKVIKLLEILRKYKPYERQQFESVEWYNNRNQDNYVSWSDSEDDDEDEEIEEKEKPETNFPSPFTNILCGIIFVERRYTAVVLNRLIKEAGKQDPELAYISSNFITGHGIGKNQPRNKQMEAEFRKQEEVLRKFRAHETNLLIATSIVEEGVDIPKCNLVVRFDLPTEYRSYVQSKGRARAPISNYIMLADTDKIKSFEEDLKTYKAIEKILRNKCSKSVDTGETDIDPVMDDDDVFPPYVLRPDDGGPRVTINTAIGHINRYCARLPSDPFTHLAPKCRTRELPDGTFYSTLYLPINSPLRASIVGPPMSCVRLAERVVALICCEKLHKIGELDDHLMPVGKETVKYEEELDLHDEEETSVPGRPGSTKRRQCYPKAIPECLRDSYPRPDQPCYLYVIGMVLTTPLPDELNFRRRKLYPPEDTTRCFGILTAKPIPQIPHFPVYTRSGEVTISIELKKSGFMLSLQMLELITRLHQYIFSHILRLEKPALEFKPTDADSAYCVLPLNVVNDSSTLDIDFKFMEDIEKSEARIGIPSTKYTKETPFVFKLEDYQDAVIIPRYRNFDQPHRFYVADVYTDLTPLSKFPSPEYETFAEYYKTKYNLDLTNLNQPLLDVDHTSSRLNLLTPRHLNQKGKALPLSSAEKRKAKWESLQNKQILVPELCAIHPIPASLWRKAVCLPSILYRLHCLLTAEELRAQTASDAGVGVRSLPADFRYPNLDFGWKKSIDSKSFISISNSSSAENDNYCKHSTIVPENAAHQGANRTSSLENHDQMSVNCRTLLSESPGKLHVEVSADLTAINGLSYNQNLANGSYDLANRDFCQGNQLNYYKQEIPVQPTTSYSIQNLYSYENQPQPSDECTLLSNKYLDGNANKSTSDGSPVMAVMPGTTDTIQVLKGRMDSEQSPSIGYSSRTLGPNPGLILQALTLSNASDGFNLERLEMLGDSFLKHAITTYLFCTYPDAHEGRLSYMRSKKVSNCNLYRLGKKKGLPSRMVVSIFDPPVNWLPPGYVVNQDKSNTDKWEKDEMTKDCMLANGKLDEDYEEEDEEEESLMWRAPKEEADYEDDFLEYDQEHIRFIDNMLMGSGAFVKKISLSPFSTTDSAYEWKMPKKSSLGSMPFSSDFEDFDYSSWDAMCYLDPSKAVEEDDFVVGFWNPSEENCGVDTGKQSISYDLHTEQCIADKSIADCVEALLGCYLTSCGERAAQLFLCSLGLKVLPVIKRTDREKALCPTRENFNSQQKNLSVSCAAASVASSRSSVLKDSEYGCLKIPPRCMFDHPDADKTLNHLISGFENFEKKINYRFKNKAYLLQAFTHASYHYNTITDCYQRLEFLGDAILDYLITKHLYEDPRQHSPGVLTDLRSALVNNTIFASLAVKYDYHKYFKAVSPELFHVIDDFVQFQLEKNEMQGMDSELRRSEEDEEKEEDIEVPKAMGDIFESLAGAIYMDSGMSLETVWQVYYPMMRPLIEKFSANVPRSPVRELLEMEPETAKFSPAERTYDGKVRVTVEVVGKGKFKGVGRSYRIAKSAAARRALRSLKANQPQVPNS
# UniProt Q8NDV7: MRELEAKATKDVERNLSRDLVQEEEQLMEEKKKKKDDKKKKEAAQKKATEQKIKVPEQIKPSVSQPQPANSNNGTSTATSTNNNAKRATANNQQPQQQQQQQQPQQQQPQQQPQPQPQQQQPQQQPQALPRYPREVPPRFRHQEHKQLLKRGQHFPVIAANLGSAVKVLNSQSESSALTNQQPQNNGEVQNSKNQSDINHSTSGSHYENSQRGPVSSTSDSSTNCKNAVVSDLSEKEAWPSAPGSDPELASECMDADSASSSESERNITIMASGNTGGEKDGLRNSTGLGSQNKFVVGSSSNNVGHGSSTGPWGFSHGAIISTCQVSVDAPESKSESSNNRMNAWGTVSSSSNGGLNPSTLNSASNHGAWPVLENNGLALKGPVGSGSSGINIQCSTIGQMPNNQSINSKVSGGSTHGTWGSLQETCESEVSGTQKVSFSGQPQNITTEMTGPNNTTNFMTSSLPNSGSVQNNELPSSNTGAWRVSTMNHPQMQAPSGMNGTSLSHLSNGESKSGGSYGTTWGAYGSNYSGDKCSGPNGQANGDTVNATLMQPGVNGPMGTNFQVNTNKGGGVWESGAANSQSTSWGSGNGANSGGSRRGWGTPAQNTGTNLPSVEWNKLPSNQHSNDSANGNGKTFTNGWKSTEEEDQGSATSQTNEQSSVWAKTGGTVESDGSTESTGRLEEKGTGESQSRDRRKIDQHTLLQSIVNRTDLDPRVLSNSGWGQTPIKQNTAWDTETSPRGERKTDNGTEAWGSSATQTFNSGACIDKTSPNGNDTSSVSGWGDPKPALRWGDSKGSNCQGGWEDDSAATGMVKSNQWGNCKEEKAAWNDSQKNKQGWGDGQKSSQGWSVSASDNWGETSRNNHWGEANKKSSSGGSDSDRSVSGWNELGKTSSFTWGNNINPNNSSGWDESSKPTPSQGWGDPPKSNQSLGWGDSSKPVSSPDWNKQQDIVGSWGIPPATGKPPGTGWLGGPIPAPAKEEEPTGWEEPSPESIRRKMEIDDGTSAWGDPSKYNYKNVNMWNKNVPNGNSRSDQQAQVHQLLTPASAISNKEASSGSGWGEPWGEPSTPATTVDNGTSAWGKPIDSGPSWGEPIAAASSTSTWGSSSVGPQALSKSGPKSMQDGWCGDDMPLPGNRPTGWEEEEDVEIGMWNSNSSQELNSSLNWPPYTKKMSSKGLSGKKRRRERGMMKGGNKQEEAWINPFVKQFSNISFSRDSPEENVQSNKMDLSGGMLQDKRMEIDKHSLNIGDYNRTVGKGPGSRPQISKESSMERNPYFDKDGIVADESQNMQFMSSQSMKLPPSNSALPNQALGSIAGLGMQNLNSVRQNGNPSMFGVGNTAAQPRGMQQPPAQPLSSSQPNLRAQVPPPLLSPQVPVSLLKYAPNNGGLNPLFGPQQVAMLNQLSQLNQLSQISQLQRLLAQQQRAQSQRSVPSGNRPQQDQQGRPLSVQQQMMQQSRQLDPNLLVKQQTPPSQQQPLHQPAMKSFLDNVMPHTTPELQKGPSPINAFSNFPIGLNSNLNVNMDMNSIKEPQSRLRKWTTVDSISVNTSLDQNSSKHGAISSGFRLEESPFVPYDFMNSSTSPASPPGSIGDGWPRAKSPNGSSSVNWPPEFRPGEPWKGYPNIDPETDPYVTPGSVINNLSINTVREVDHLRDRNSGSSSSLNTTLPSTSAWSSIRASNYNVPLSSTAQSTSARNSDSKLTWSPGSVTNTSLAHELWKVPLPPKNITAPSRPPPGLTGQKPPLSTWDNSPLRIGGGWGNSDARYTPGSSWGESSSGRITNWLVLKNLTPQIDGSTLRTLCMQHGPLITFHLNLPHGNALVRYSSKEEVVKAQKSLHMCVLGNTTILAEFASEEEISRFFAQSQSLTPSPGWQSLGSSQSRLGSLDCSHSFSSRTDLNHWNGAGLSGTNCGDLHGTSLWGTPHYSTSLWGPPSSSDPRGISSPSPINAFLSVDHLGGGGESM
# Results are given in words; binding and its absence hold for the method and conditions named. Binding seen in cells or lysates may run through a third protein. Some binding calls cover weakened binding; strength is not graded here.
# Target: Argonaute 2 (AGO2), endogenous untagged (human (endogenous in A549)) (UniProt Q9UKV8)
# Experiment: co-IP
row,Substance,binding
1,Dicer (from UniProt Q9UPY3 1-1922) (enzyme),binds
2,TNRC6A (from UniProt Q8NDV7 1-1962),binds
